Measurements reported in US7960133B2, “Methods of diagnosing leiomyoma by measuring catechol-O-methyltransferase” (The Board of Regents of the University of Texas System, priority 2003, dated 2011).
At least one compound was matched to its structure with a doubt left.

Tested on: ELT3 cells
Test: ELT3 cell proliferation assay (Hoechst 33258 DNA quantitation)
Assay type: cell-based, rat
Procedure: The Eker rat tumor-derived ELT-3 uterine leiomyoma cells were grown in DMEM medium supplemented with 10% fetal bovine serum and 1% antibiotics (containing 100 U/ml penicillin and 100 μg/ml streptomycin. The cells were maintained in the 100 mm tissue culture dishes at 37° C. air with 5% CO2 and 95% humidity. When experiments required the addition of exogenous compounds, cells were weaned by culturing for 48 h in phenol red-free medium containing 10% Charcoal-stripped fetal calf serum. For proliferation assays, cells were plated onto 24-well plates in DMEM at a density of 4000 cells/well. The cells allowed to attach overnight and then treated with E2 (10^−6 to 10^−10 M) without COMT-inhibitor or with 10 μM of COMT-inhibitor, 2-OHE2 (10^−5 to 10^−10 M) without COMT-I, or with 10 μM COMT-I, 2-OHE2, or 2-MeOHE2 (10^−5 to 10^−10 M). Control cells were treated with medium containing 10 μl of absolute ethanol. After 48 hours, the cells were harvested for the proliferation assay. For western blot analysis, the cells were seeded in 100 mm plates at final density of 2×10^6 cells/plate. […] A fluorometric assay, implementing Hoechst 33258 (bisbenzimide), was used for DNA quantitation. […] Fluorescence was measured (DyNA Quant 200; Hoefer Pharmacia Biotech) after excitation at 365 nm and fluorescence at 458 nm. […]

C[C@]12CC[C@@H]3c4ccc(O)cc4CC[C@H]3[C@@H]1CC[C@@H]2O [E2, β-Estradiol]
proliferative effect at higher concentrations (E2 10^−7 to 10^−6 M): limited or non-existing
ELT3 proliferation over the untreated control (E2 10^−10 to 10^−6 M, 48 h): concentration-dependent increase
